Binding data for two substances are collected here from article PMC3979679.

Results are given in words; binding and its absence hold for the method and conditions named. Binding can be weak; no strength is given. For some assays here: In cells and extracts the contact can be indirect. For some assays here: Where a sequence is shown, tags or fusion partners need not be part of it.

Experiment [1] has as its target T1, FLAG-tagged Mind bomb 2 (Mib2) (zebrafish) (UniProt A0AR23).
T1 sequence: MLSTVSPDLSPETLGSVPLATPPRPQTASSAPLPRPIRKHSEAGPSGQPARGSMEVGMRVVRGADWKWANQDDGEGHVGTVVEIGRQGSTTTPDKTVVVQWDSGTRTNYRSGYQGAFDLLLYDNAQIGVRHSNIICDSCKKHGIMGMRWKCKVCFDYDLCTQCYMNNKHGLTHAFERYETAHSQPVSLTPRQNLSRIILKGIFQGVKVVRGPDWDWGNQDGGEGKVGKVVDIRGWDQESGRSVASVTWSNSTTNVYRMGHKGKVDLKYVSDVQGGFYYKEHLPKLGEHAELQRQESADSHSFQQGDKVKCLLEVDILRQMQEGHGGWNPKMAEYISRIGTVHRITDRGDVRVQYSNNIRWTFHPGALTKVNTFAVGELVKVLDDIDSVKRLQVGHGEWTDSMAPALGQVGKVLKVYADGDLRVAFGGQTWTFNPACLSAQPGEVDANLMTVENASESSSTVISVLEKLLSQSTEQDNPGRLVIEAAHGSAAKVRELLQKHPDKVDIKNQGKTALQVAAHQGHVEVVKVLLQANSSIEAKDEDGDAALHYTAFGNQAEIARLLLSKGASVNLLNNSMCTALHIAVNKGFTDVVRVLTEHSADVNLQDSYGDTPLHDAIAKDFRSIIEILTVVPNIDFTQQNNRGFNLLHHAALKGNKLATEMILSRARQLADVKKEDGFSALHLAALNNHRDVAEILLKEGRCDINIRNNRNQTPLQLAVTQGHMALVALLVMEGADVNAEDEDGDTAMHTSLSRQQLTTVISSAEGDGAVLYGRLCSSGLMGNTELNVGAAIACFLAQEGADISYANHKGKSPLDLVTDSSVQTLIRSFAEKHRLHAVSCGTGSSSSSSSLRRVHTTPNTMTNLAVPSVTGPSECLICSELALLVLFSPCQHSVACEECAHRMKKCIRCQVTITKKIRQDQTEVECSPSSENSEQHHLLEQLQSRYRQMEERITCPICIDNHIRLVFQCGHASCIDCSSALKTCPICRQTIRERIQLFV
As to the kind of experiment: co-IP; COS7 cells co-transfected with FLAG-tagged Mib/Mib2 and Myc- or HA-tagged partner; lysate in IONIC buffer (50 mM Tris HCl pH 7.4, 150 mM NaCl, 1% Triton X-100); anti-FLAG M2 affinity gel 2 h at 4°C; blot with anti-Myc or anti-HA.

Experiment [2] addresses T2, Mib2-C-RF12 (781-999 aa) (zebrafish) (UniProt A0AR23).
T2 sequence: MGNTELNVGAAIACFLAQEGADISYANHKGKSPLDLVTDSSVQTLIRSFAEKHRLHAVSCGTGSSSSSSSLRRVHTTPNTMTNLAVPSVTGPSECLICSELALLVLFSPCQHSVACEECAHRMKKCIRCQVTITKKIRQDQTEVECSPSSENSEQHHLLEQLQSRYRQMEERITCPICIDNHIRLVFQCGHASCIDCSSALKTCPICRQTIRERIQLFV
The experiment in a line: two-hybrid; first screen (Hybrigenics): LexA DNA-binding domain-bait and Gal4 activation domain-prey, HIS3 reporter, in the nucleus; random-primed Danio rerio embryo (18-20 hpf) cDNA library.

Consider “Usp9 (full length), HA-tagged (from UniProt A0ACM8Q8A5)”, for which the binding result in experiment [1] is given as “binds”. As to “ubiquitin specific protease 9 (usp9), prey 1980-2363 aa (from UniProt A0ACM8Q8A5) (domain or fragment)”, the binding result in experiment [2] is on record as “binds”.
